Among all 400,000 compounds or so, about 13,000 (3.2%) were called active. Inconclusive means that the source gave no clear call. Such entries were picked first, then a sample of the others. The call rests on the fitted dose curve; in most records, active means well fitted cell-killing curve with a large enough effect; inconclusive means small, poorly fitted or top-dose-only effect, or effect the other way; inactive means flat fitted curve, though single readings scatter. Potencies of inconclusive entries are doubtful fits and often do not repeat.
Assay: qHTS assay for MDR1-selective chemotherapeutics: Primary screen using the drug-selected MDR subline cells KB-V1; further: nearly all actives have a fitted effect of over 60% in size
Conditions: KB-V1 MDR cells viability, CellTiter-Glo, 72 h; activity change, negative = cytotoxicity: at 46.1 µM (top of the series)
In short: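 Following 72 h at 37 degrees C with compound, KB-V1 cell viability was read by CellTiter-Glo luminescence, medium being phenol-red-free DMEM plus 10% FBS; concentration-response parameters came from normalized, curve-fitted qHTS data.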
On the % scale 0 is the no-effect control and ±100 the full control effect; potency means the concentration at half of the fitted maximal effect.

| SMILES | Potency | activity change, negative = cytotoxicity |
| --- | --- | --- |
| CCc1cc(C(=O)N2CCN(S(=O)(=O)c3cc(C)ccc3C)CC2)sc1C | inconclusive: 29.1 µM [rising, single point] |  |
| COc1cc(C(=O)OC(C)C(=O)NC2CCCCC2C)c([N+](=O)[O-])cc1OC (stereo not given) | inconclusive: 8.2 µM [cytotoxic, partial curve] |  |
| CCn1c(=O)c2c(nc3n2CC(C)CN3CCc2ccccc2)n(C)c1=O (stereo not given) | inconclusive: 10.3 µM [cytotoxic, partial curve] |  |
| NC1=NC2(CCCCC2)n2c(nc3ccccc32)N1 | inconclusive: 32.6 µM [rising, single point] |  |
| COc1ccc(N(C(=O)COc2ccc(F)cc2)S(=O)(=O)c2ccc(C)cc2)cc1 | inconclusive: 8.2 µM [cytotoxic, partial curve] |  |
| N#CC1=C2SCC(O)(c3ccccc3)N2C(=O)CC1c1ccccc1F (stereo not given) | inconclusive: 6.51 µM [cytotoxic, full curve, poor fit] |  |
| O=c1oc2ccccc2cc1-c1cn(-c2ccccc2)c(=S)[nH]1 | active: 5.8 µM |  |
| Cc1cc2oc(=O)cc(CN3CCC(C)CC3)c2c(C)c1Cl | inconclusive: 29.1 µM [cytotoxic, single point] |  |
| N#Cc1ccc(OCC(=O)NCCCN2CCCC2=O)cc1 |  | inactive: 10.7% |
| Cc1ccc(N(CC(=O)NCCSc2ccccn2)S(=O)(=O)c2ccc(F)cc2)cc1 | inconclusive: 7.31 µM [cytotoxic, partial curve] |  |
| O=C1CN(C(=O)c2cccc(Br)c2)c2ccccc2N1 | active: 10.3 µM |  |
| COc1ccc(OC)c(NC(=S)NCCSc2ccc(C)cc2)c1 | active: 23.1 µM |  |
| CCCC(=O)OC1CC(C)N(C(=O)c2ccccc2)c2ccc(C)cc21 (stereo not given) | inconclusive: 20.6 µM [cytotoxic, single point] |  |
| COc1cccc(CNC(=O)[C@@H]2CCCN2C(=O)[C@@H]2CCCN2S(=O)(=O)c2ccc(OC)c(C)c2)c1 |  | inactive: -1.4% |
| CCC(c1nnnn1C(C)(C)CC)N(CCCO)Cc1cc2cc(C)cc(C)c2[nH]c1=O (stereo not given) |  | inactive: -10.2% |
| COc1ccc2nc(NC(=O)CSCC(=O)Nc3cc(C)on3)sc2c1 |  | inactive: -5.78% |
| COc1ccc(N=C(C)C2=C(O)c3ccccc3C2=O)cc1 | inconclusive: 16.4 µM [cytotoxic, single point] |  |
| CC(=O)c1ccccc1OCCOc1ncnc2sccc12 | inconclusive: 16.4 µM [cytotoxic, single point] |  |
| COc1ccc(S(=O)(=O)N(C)C)cc1NCC(=O)Nc1ccc(F)cc1F | inconclusive: 23.1 µM [cytotoxic, single point] |  |
| COc1ccc(-c2nnc(SCC(=O)N(Cc3ccccc3)C(C)(C)C)o2)cc1OC | active: 9.2 µM |  |

Arranged by SMILES length (falling): part of the list above.

| SMILES | Potency | activity change, negative = cytotoxicity |
| --- | --- | --- |
| COc1cccc(CNC(=O)[C@@H]2CCCN2C(=O)[C@@H]2CCCN2S(=O)(=O)c2ccc(OC)c(C)c2)c1 |  | inactive: -1.4% |
| Cc1ccc(N(CC(=O)NCCSc2ccccn2)S(=O)(=O)c2ccc(F)cc2)cc1 | inconclusive: 7.31 µM [cytotoxic, partial curve] |  |
| COc1ccc(N=C(C)C2=C(O)c3ccccc3C2=O)cc1 | inconclusive: 16.4 µM [cytotoxic, single point] |  |

— PubChem BioAssay AID1347076 (National Center for Advancing Translational Sciences (NCATS), 2019)
